# Source: patent publication US6849639B2, “Integrin inhibitors and their methods of use” (Amgen Inc., priority 1999, dated 2005)
# Where a name gives a salt, the structure may show the parent alone. Some of these results come from one statement about several compounds together. At least one structure is not confirmed: it was looked up by name or label, or the drawing left a doubt.
# Target: integrin αvβ3, αvβ5 or αIIbβ3
# Assay: Solid phase integrin binding assay (Vitronectin-Ru or Fibrinogen-Ru, integrin coated paramagnetic beads)
# Design: species or system human
# Conditions: the integrin is not specified for the stated bound
row,Compound,IC50 [µM]
1,"O=C(O)CC(NC(=O)C1CC(=O)N(c2cccc(NC(=O)Nc3ccccc3)c2)C1)c1cccnc1 (stereo not drawn) [Example 1, sodium 3-((5-oxo-1-{3-((N-phenylcarbamoyl)amino)phenyl}pyrrolidin-3-yl)carbonylamino)-3-(3-pyridyl)propanoate]",≤ 30
2,O=C(O)CC(NC(=O)C1CC(=O)N(c2cccc(NC(=O)NCCc3ccccc3)c2)C1)c1cccnc1 (stereo not drawn) [Example 2],≤ 30
3,"COc1ccc(CNC(=O)Nc2cccc(N3CC(C(=O)NC(CC(=O)O)c4cccnc4)CC3=O)c2)cc1 (stereo not drawn) [Example 3, 3-({1-[3-({N-((4-methoxyphenyl)methyl)carbamoyl}amino)phenyl)-5-oxopyrrolidin-3-yl}carbonylamino)-3-(3-pyridyl)propanoic acid]",≤ 30
4,CNC(=O)Nc1cccc(N2CC(C(=O)NC(CC(=O)O)c3cccnc3)CC2=O)c1 (stereo not drawn) [Example 4],≤ 30
5,"CCCCNC(=O)Nc1cccc(N2CC(C(=O)NC(CC(=O)O)c3cccnc3)CC2=O)c1 (stereo not drawn) [Example 5, 3-((1-{3-((N-butylcarbamoyl)amino)phenyl}-5-oxopyrrolidin-3-yl)carbonylamino)-3-(3-pyridyl)propanoic acid]",≤ 30
6,"CCCCCCNC(=O)Nc1cccc(N2CC(C(=O)NC(CC(=O)O)c3cccnc3)CC2=O)c1 (stereo not drawn) [Example 6, 3-((1-{3-((N-hexylcarbamoyl)amino)phenyl}-5-oxopyrrolidin-3-yl)carbonylamino)-3-(3-pyridyl)propanoic acid]",≤ 30
7,"CCCNC(=O)Nc1cccc(N2CC(C(=O)NC(CC(=O)O)c3cccnc3)CC2=O)c1 (stereo not drawn) [Example 7, 3-((5-oxo-1-{3-((N-propylcarbamoyl)amino)phenyl}pyrrolidin-3-yl)carbonylamino)-3-(3-pyridyl)propanoic acid]",≤ 30
8,"CC(C)NC(=O)Nc1cccc(N2CC(C(=O)NC(CC(=O)O)c3cccnc3)CC2=O)c1 (stereo not drawn) [Example 8, 3-{ (1-(3-{(N-(1-methylethyl)carbamoyl)amino}phenyl)-5-oxopyrrolidin-3-yl)carbonylamino}-3-(3-pyridyl)protanoic acid]",≤ 30
9,"O=C(O)CC(NC(=O)C1CC(=O)N(c2cccc(NC3=NCCS3)c2)C1)c1cccnc1 (stereo not drawn) [Example 9, 3-({5-oxo-1-(3-(1,3-thiazolin-2-ylamino)phenyl)pyrrolidin-3-yl}carbonylamino)-3-(3-pyridyl)propanoic acid]",≤ 30
10,"O=C(O)CC(NC(=O)C1CC(=O)N(c2cccc(NC3=NCCN3)c2)C1)c1cccnc1 (stereo not drawn) [Example 10, 3-({1-(3-(2-imidazolin-2-ylamino)phenyl)-5-oxopyrrolidin-3-yl}carbonylamino)-3-(3-pyridyl)propanoic acid]",≤ 30
11,"O=C(O)CC(NC(=O)C1CC(=O)N(c2cccc(NCC(=O)Nc3ccccc3)c2)C1)c1cccnc1 (stereo not drawn) [Example 11, 3-{(5-oxo-1-(3-{((N-phenylcarbamoyl)methyl)amino}phenyl)pyrrolidin-3-yl}carbonylamino}-3-(3-pyridyl)propanoic acid]",≤ 30
12,"O=C(O)CC(NC(=O)C1CC(=O)N(c2cccc(NC(=O)c3cccnc3)c2)C1)c1cccnc1 (stereo not drawn) [Example 13, 3-({5-oxo-1-(3-(3-pyridylcarbonylamino)phenyl)pyrrolidin-3-yl}carbonylamino)-3-(3-pyridyl)propanoic acid]",≤ 30
13,"O=C(O)CC(NC(=O)C1CC(=O)N(c2cccc(NC(=O)c3ccccc3)c2)C1)c1cccnc1 (stereo not drawn) [Example 14, 3-({5-oxo-1-(3-(phenylcarbonylamino)phenyl)pyrrolidin-3-yl}carbonylamino)-3-(3-pyridyl)propanoic acid]",≤ 30
14,"O=C(CC(NC(=O)C1CC(=O)N(c2cccc(NC(=O)NCc3ccccc3)c2)C1)c1cccnc1)NS(=O)(=O)c1ccccc1 (stereo not drawn) [Example 19, 3-{(5-oxo-1-(3-{(benzylamino)carbonylamino}phenyl)pyrrolidin-3-yl)carbonylamino}-N-(phenylsulfonyl)-3-(3-pyridyl)propanamide]",≤ 30
15,"O=C(O)CC(NC(=O)C1CC(=O)N(c2cccc(NC(=S)NCc3ccccc3)c2)C1)c1cccnc1 (stereo not drawn) [Example 20, 3-({5-oxo-1-(3-({(benzylamino)thioxomethyl}amino)phenyl)pyrrolidin-3-yl}carbonylamino)-3-(3-pyridyl)propanoic acid, sodium salt]",≤ 30
16,"O=C(O)CC(NC(=O)C1CC(=O)N(c2cccc(NC(=S)NCc3ccc(F)cc3)c2)C1)c1cccnc1 (stereo not drawn) [Example 21, 3-((1-{3-(({((4-fluorophenyl)methyl)amino}thioxomethyl)amino)phenyl}-5-oxopyrrolidin-3-yl)carbonylamino)-3-(3-pyridyl)propanoic acid, sodium salt]",≤ 30
17,"O=C(O)CC(NC(=O)C1CC(=O)N(c2cccc(NC(=S)NCc3ccco3)c2)C1)c1cccnc1 (stereo not drawn) [Example 22, 3-({1-(3-({((2-furylmethyl)amino)thioxomethyl}amino)phenyl)-5-oxopyrrolidin-3-yl}carbonylamino)-3-(3-pyridyl)propanoic acid, sodium salt]",≤ 30

row,Compound,IC50 [µM]
1,"CC(C)CCNC(=S)Nc1cccc(N2CC(C(=O)NC(CC(=O)O)c3cccnc3)CC2=O)c1 (stereo not drawn) [Example 23, 3-({1-(3-({((3-methylbutyl)amino)thiooxomethyl}amino)phenyl)-5-oxopyrroidin-3-yl}carbonylamino)-3-(3-pyridyl)propanoic acid, sodium salt]",≤ 30
2,"CCCCNC(=S)Nc1cccc(N2CC(C(=O)NC(CC(=O)O)c3cccnc3)CC2=O)c1 (stereo not drawn) [Example 24, 3-{(1-(3-{((butylamino)thioxomethyl)amino}phenyl)-5-oxopyrrolidin-3-yl)carbonylamino}-3-(3-pyridyl)propanoic acid, sodium salt]",≤ 30
3,"O=C(O)CC(NC(=O)C1CC(=O)N(c2cccc(NC(=O)NCc3ccccc3)c2)C1)c1cc(Cl)cc(Cl)c1 (stereo not drawn) [Example 25, 3-(3,5-Dichlorophenyl)-3-{(5-oxo-1-(3-{(benzylamino)carbonylamino}phenyl)pyrrolidin-3-yl)carbonylaminolyronanoic acid sodium salt]",≤ 30
4,"O=C(O)CC(NC(=O)C1CC(=O)N(c2cccc(NC(=O)NCc3ccccc3)c2)C1)c1cc(F)cc(F)c1 (stereo not drawn) [Example 26, 3-(3,5-difluorophenyl)-3-{(5-oxo-1-(3-{(benzylamino)carbonylamino}phenyl)pyrrolidin-3-yl)carbonylamino}prooanoic acid, sodium salt]",≤ 30
5,"O=C(O)CC(NC(=O)C1CC(=O)N(c2cccc(NC(=O)N3CCCCC3)c2)C1)c1cccnc1 (stereo not drawn) [Example 27, 3-({5-oxo-1-(3-(piperidylcarbonylamino)phenyl)pyrrolidin-3-yl}carbonylamino)-3-(3-pyridyl)propanoic acid]",≤ 30
6,"O=C(O)CC(NC(=O)C1CC(=O)N(c2cccc(NC(=O)NCc3ccc4c(c3)OCO4)c2)C1)c1cccnc1 (stereo not drawn) [Example 29, 3-{(1-{3-((N-(1,3-benzodioxol-5-ylmethyl)aminocarbonyl)amino)phenyl}-5-oxooyrrolidin-3-yl)carbonylamino}-3-(3-pyridyl)propanoic acid, sodium salt]",≤ 30
7,"Cc1ccc(NC(=O)NCc2ccccc2)cc1N1CC(C(=O)NC(CC(=O)O)c2cccnc2)CC1=O (stereo not drawn) [Example 31, 3-{(1-(2-methyl-5-{(benzylamino)carbonylamino}phenyl)-5-oxopyrrolidin-3-yl)carbonylamino}-3-(3-pyridyl)propanoic acid]",≤ 30
8,"O=C(O)CC(NC(=O)C1CC(=O)N(c2ccc(F)c(NC(=O)NCc3ccccc3)c2)C1)c1cccnc1 (stereo not drawn) [Example 32, 3-{(1-(4-fluoro-5-{(benzylamino)carbonylamino}phenyl)-5-oxopyrrolidin-3-yl)carbonylamino}-3-(3-pyridyl)propanoic acid, sodium salt]",≤ 30
9,"O=C(O)CC(NC(=O)C1CC(=O)N(c2cc(NC(=O)NCc3ccccc3)cc(C(F)(F)F)c2)C1)c1cccnc1 (stereo not drawn) [Example 33, 3-{(5-oxo-1-(3-{(benzylamino)carbonylamino}-5-(trifluoromethyl)phenyl)pyrrolidin-3-yl)carbonylamino}-3-(3-pyridyl)propanoic acid]",≤ 30
10,"COc1ccc(NC(=O)NCc2ccccc2)cc1N1CC(C(=O)NC(CC(=O)O)c2cccnc2)CC1=O (stereo not drawn) [Example 34, 3-{(1-(2-methoxy-5-{(benzylamino)carbonylamino}phenyl)-5-oxo-pyrolidin-3-yl)carbonylamino}-3-(3-pyridyl)propanoic acid, sodium salt]",≤ 30
11,"O=C(O)CC(NC(=O)C1CC(=O)N(c2cc(NC(=O)NCc3ccccc3)ccc2F)C1)c1cccnc1 (stereo not drawn) [Example 35, 3-{(1-(2-fluoro-5-{(benzylamino)carbonylamino}phenyl)-5-oxopyrrolidin-3-yl)carbonylamino}-3-(3-pyridyl)propanoic acid, sodium salt]",≤ 30
12,"O=C(O)CC(NC(=O)C1CC(=O)N(c2cc(NC(=O)NCc3ccccc3)ccc2Cl)C1)c1cccnc1 (stereo not drawn) [Example 36, 3-{(1-(2-chloro-5-{(benzylamino)carbonylamino}phenyl)-5-oxopyrrolidin-3-yl)carbonylamino}-3-(3-pyridyl)propanoic acid, sodium salt]",≤ 30
13,"O=C(O)CC(NC(=O)C1CC(=O)N(c2ccc(Cl)c(NC(=O)NCc3ccccc3)c2)C1)c1cccnc1 (stereo not drawn) [Example 37, 3-{(1-(4-chloro-3-{(benzylamino)carbonylamino}phenyl)-5-oxo-pyrolidin-3-yl)carbonylamino}-3-(3-pyridyl)propanoic acid, sodium salt]",≤ 30
14,"COCCNC(=O)Nc1cccc(N2CC(C(=O)NC(CC(=O)O)c3cccnc3)CC2=O)c1 (stereo not drawn) [Example 38, 3-{(1-(3-{(2-methoxyethylamino)carbonylamino}phenyl)-5-oxopyrrolidin-3-yl)carbonylamino}-3-(3-pyridyl)propanoic acid, sodium salt]",≤ 30
15,"Cc1ccc(N2CC(C(=O)NC(CC(=O)O)c3cccnc3)CC2=O)cc1NC(=O)NCc1ccccc1 (stereo not drawn) [Example 39, 3-{(1-(4-methyl-3-{(benzylamino)carbonylamino}phenyl)-5-oxo-pyrolidin-3-yl)carbonylamino}-3-(3-pyridyl)propanoic acid, sodium salt]",≤ 30
16,"O=C(O)CC(NC(=O)C1CC(=O)N(c2cccc(CNc3ccccn3)c2)C1)c1cnc2ccccc2c1 (stereo not drawn) [Example 40, 3-{(5-oxo-1-{3-((2-pyridylamino)methyl)phenyl}pyrrolidin-3-yl)carbonylamino}-3-(3-quinolyl)propanoic acid]",≤ 30
